Reference: article PMC5789847, “Bismuth antimicrobial drugs serve as broad-spectrum metallo-β-lactamase inhibitors” (Nature Communications, 2018)

Key:
E. coli ATCC 25922 = assay: Microdilution MIC assay; type: cell-based; conditions: Escherichia coli, ATCC 25922 / CBS0, CBS 0 µg mL-1, read-out: MIC of MER, CBS at 0
From the text: (§1) Other procedures were kept strictly the same.

E. coli BL21(DE3) = assay: Microdilution MIC assay; type: cell-based; conditions: Escherichia coli, CBS0, CBS 0 µg mL-1, read-out: MIC of MER, CBS at 0
From the text: as §1

Q: `C[C@@H](O)[C@H]1C(=O)N2C(C(=O)O)=C(S[C@@H]3CN[C@H](C(=O)N(C)C)C3)[C@H](C)[C@H]12` [MER, meropenem] was tested. Which MIC (E. coli ATCC 25922) did it give?
A: 0.03 µg/mL

Q: And the MIC (E. coli BL21(DE3))?
A: 0.03 µg/mL
